Reference: paper PMC5561105
No constants are given. Whether binding was seen depends on the method and setting. Binding seen in cells or lysates may run through a third protein. Some binding calls cover weakened binding; strength is not graded here.

Protein sequences, listed by entry. Tags and fused reporters are not part of them.
UniProt Q96KQ7: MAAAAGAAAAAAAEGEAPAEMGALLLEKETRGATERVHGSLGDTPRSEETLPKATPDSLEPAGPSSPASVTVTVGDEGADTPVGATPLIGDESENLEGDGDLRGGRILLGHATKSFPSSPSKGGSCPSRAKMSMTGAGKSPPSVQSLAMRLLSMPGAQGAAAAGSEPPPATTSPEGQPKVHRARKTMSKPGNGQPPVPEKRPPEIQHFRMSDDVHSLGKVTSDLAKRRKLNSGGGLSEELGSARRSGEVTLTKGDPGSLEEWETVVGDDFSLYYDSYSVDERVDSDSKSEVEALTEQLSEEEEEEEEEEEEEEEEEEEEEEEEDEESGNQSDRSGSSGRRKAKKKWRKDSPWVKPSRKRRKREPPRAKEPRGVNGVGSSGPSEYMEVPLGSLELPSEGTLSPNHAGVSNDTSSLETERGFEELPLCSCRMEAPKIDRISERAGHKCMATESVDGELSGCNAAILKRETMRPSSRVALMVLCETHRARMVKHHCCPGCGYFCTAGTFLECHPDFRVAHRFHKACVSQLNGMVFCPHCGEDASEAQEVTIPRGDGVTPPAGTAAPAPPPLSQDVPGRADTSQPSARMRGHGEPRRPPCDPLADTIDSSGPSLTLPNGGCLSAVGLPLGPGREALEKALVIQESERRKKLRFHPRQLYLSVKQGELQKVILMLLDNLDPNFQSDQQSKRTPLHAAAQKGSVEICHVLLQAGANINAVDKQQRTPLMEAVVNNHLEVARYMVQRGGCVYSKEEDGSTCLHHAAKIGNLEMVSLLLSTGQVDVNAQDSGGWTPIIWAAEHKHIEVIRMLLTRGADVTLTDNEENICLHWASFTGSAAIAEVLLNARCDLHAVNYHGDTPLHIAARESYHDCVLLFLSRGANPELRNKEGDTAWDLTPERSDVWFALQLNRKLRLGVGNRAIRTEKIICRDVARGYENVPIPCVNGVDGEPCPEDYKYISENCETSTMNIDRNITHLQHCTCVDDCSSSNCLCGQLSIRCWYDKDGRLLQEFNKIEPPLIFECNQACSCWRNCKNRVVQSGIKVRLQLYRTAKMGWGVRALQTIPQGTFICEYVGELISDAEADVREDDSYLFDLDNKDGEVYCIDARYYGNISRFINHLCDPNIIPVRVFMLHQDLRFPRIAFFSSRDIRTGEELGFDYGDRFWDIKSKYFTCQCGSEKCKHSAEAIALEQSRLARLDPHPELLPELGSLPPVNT
UniProt P25490: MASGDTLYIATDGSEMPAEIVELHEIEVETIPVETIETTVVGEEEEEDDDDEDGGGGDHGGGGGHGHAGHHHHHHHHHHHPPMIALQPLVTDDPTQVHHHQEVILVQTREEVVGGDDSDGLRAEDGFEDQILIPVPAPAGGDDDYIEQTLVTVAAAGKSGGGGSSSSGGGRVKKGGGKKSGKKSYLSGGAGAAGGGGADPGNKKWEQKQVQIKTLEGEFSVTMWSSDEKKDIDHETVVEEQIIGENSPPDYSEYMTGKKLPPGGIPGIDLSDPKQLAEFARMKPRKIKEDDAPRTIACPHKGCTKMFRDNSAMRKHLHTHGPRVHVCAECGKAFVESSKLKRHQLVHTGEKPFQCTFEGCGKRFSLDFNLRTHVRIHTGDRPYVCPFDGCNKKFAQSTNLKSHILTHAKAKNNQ
UniProt Q13547: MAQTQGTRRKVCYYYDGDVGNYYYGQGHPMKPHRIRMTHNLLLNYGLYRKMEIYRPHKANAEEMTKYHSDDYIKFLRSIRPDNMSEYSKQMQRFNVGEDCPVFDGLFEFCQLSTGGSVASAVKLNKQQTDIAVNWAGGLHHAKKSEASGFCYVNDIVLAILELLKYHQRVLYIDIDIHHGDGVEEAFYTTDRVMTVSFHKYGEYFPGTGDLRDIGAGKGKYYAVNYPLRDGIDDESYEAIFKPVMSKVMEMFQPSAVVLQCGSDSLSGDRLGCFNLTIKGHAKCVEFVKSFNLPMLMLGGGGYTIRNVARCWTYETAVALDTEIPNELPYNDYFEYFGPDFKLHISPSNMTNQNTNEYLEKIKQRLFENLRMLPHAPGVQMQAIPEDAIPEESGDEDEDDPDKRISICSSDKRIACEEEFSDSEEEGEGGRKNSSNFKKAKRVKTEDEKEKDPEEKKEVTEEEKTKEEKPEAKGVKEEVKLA

Columns and labels:
G9a (human) = G9a (human) (UniProt Q96KQ7); assay: co-IP; total cell extracts of 293T and MDA-MB-231 cells, precleared with protein A-agarose; incubated with anti-G9a or anti-YY1 overnight at 4 °C, then protein A/G-agarose beads; immunoblot with anti-YY1 or anti-HDAC1
[1] = target: YY1 (human (in 293T and MDA-MB-231 cells)) (UniProt P25490); assay: as above

HDAC1 (from UniProt Q13547 1-482)
binding (G9a (human)): binds
binding [1]: binds

YY1 (from UniProt P25490 1-414)
binding (G9a (human)): binds
